Data published in publication doi:10.1101/2025.08.21.671500.
Like-named read-outs stand apart in the source and are kept apart here. These are yes or no findings as the source states them, for the method shown. Binding seen in cells or lysates may run through a third protein. A yes stands for co-enrichment or nearness to the bait. Other partners may have been found. Sequences can lack the tags named with a protein.

Sequences of proteins named here, by UniProt entry; tags and fusion partners are left off.
UniProt Q92826: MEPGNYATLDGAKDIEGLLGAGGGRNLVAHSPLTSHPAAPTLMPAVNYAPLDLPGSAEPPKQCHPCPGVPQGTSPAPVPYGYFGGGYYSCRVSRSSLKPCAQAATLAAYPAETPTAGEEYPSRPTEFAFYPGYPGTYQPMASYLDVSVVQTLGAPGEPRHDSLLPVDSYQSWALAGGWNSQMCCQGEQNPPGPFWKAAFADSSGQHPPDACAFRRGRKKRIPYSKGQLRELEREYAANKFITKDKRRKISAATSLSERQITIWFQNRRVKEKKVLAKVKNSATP
UniProt P10275: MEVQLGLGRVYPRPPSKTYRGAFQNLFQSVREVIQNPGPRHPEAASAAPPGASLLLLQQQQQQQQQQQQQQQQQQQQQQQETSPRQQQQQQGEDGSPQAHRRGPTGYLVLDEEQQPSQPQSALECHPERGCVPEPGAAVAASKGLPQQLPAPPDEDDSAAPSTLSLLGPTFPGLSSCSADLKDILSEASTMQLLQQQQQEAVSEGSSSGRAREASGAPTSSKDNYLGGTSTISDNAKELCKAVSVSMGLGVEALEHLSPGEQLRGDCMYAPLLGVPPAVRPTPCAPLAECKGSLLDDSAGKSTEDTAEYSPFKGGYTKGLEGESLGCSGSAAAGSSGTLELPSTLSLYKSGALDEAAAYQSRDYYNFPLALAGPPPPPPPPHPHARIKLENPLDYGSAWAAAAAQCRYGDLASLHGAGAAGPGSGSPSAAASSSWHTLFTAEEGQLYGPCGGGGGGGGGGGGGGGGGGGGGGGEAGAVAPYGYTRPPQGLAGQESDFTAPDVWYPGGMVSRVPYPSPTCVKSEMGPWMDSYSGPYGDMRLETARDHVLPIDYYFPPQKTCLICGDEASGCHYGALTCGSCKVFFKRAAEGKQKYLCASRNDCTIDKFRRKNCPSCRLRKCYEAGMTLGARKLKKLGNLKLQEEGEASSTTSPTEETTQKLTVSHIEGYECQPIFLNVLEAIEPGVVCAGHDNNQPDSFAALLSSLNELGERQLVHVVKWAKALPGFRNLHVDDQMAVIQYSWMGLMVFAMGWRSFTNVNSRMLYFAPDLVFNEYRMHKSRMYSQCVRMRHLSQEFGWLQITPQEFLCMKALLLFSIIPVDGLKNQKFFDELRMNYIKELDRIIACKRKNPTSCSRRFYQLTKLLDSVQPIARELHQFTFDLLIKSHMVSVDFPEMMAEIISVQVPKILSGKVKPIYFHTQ
UniProt P43268: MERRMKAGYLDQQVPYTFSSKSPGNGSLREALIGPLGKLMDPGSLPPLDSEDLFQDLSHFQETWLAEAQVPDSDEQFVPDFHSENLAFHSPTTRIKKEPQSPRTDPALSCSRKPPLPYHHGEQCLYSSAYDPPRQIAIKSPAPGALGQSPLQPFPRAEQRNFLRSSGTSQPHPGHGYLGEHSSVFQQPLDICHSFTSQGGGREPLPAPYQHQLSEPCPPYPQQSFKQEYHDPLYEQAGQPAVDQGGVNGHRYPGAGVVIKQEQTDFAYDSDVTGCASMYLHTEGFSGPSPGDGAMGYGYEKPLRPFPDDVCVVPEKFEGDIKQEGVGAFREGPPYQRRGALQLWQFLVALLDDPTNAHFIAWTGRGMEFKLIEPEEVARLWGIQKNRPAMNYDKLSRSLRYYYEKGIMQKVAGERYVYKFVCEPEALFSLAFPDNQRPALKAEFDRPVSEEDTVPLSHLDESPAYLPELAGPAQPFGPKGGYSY

T1: FOXA1 fused to biotin ligase (FOXA1-BioID) (human) (UniProt P55317)
T1 sequence: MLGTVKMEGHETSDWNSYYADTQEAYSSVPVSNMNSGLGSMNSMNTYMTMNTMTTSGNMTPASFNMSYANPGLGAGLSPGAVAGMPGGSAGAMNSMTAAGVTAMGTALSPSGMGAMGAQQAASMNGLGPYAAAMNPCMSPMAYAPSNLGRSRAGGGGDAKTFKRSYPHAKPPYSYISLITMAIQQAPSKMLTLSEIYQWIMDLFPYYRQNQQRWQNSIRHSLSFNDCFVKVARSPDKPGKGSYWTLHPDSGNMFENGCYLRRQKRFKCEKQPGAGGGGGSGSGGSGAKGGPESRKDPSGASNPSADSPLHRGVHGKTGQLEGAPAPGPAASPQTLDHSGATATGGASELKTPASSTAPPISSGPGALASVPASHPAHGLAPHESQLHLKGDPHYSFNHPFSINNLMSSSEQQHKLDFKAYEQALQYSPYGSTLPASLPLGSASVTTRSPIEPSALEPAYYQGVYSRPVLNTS

T2: FOXA2 fused to biotin ligase (FOXA2-BioID) (human) (UniProt Q9Y261)
T2 sequence: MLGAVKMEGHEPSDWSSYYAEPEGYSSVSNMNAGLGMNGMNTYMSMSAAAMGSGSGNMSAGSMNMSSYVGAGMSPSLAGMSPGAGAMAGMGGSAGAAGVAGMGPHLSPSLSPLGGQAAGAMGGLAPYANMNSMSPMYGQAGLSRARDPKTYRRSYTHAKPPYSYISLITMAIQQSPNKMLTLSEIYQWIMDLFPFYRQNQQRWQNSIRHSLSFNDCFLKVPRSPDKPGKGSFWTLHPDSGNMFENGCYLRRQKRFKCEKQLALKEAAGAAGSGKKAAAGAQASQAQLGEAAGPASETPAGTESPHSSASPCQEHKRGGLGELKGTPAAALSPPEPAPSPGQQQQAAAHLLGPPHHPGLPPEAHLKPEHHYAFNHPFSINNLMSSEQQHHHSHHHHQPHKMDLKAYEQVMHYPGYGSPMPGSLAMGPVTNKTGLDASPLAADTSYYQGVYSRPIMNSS

T3: FOXA2 fused to biotin ligase (FOXA2-BioID) (human), Q9Y261
T3 chain: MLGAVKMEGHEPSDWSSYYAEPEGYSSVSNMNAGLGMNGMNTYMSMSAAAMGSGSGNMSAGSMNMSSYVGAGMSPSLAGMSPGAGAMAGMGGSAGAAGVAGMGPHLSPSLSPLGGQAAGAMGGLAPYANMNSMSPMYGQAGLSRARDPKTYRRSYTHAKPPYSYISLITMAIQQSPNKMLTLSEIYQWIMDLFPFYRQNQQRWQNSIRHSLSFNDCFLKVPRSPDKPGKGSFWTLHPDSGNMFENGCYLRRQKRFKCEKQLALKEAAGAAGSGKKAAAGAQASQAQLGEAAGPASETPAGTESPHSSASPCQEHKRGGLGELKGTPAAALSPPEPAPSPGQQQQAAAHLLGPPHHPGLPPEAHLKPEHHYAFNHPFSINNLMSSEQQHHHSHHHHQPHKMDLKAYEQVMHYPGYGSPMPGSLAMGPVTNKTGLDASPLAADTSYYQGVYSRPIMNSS


How the values were obtained:
Assay in all cases: proximity labelling
[1] = target: T1, FOXA1 fused to biotin ligase (FOXA1-BioID) (human)
[2] = target: T2, FOXA2 fused to biotin ligase (FOXA2-BioID) (human)
[3] = target: T1, FOXA1 fused to biotin ligase (FOXA1-BioID) (human); remark: listed apart in the source
[4] = target: T2, FOXA2 fused to biotin ligase (FOXA2-BioID) (human); remark: listed apart in the source
[5] = target: T2, FOXA2 fused to biotin ligase (FOXA2-BioID) (human); remark: listed apart in the source
[6] = target: T1, FOXA1 fused to biotin ligase (FOXA1-BioID) (human); remark: listed apart in the source
[7] = target: T3, FOXA2 fused to biotin ligase …; settings: remark: other sources report otherwise

binding [3] | binding [4] | Molecule | also measured
binds | binds | HOXB13 (from UniProt Q92826 1-284) | binding [1]: binds; binding [2]: binds
binds | binds | androgen receptor (from UniProt P10275 1-920) | –
binds weakly | binds weakly | ETV4 (from UniProt P43268 1-484) | –
– | – | FOXA1 (protein, UniProt P55317 1-472) MLGTVKMEGHETSDWNSYYADTQEAYSSVPVSNMNSGLGSMNSMNTYMTMNTMTTSGNMTPASFNMSYANPGLGAGLSPGAVAGMPGGSAGAMNSMTAAGVTAMGTALSPSGMGAMGAQQAASMNGLGPYAAAMNPCMSPMAYAPSNLGRSRAGGGGDAKTFKRSYPHAKPPYSYISLITMAIQQAPSKMLTLSEIYQWIMDLFPYYRQNQQRWQNSIRHSLSFNDCFVKVARSPDKPGKGSYWTLHPDSGNMFENGCYLRRQKRFKCEKQPGAGGGGGSGSGGSGAKGGPESRKDPSGASNPSADSPLHRGVHGKTGQLEGAPAPGPAASPQTLDHSGATATGGASELKTPASSTAPPISSGPGALASVPASHPAHGLAPHESQLHLKGDPHYSFNHPFSINNLMSSSEQQHKLDFKAYEQALQYSPYGSTLPASLPLGSASVTTRSPIEPSALEPAYYQGVYSRPVLNTS | binding [5]: binds
– | – | NKX2-1 (protein, UniProt P43699 1-371) MSMSPKHTTPFSVSDILSPLEESYKKVGMEGGGLGAPLAAYRQGQAAPPTAAMQQHAVGHHGAVTAAYHMTAAGVPQLSHSAVGGYCNGNLGNMSELPPYQDTMRNSASGPGWYGANPDPRFPAISRFMGPASGMNMSGMGGLGSLGDVSKNMAPLPSAPRRKRRVLFSQAQVYELERRFKQQKYLSAPEREHLASMIHLTPTQVKIWFQNHRYKMKRQAKDKAAQQQLQQDSGGGGGGGGTGCPQQQQAQQQSPRRVAVPVLVKDGKPCQAGAPAPGAASLQGHAQQQAQHQAQAAQAAAAAISVGSGGAGLGAHPGHQPGSAGQSPDLAHHAASPAALQGQVSSLSHLNSSGSDYGTMSCSTLLYGRTW | binding [6]: binds
– | – | NKX2-1, P43699 1-371 (protein) MSMSPKHTTPFSVSDILSPLEESYKKVGMEGGGLGAPLAAYRQGQAAPPTAAMQQHAVGHHGAVTAAYHMTAAGVPQLSHSAVGGYCNGNLGNMSELPPYQDTMRNSASGPGWYGANPDPRFPAISRFMGPASGMNMSGMGGLGSLGDVSKNMAPLPSAPRRKRRVLFSQAQVYELERRFKQQKYLSAPEREHLASMIHLTPTQVKIWFQNHRYKMKRQAKDKAAQQQLQQDSGGGGGGGGTGCPQQQQAQQQSPRRVAVPVLVKDGKPCQAGAPAPGAASLQGHAQQQAQHQAQAAQAAAAAISVGSGGAGLGAHPGHQPGSAGQSPDLAHHAASPAALQGQVSSLSHLNSSGSDYGTMSCSTLLYGRTW | binding [7]: binds
– | – | FOXA2 (protein, UniProt Q9Y261 1-457) MLGAVKMEGHEPSDWSSYYAEPEGYSSVSNMNAGLGMNGMNTYMSMSAAAMGSGSGNMSAGSMNMSSYVGAGMSPSLAGMSPGAGAMAGMGGSAGAAGVAGMGPHLSPSLSPLGGQAAGAMGGLAPYANMNSMSPMYGQAGLSRARDPKTYRRSYTHAKPPYSYISLITMAIQQSPNKMLTLSEIYQWIMDLFPFYRQNQQRWQNSIRHSLSFNDCFLKVPRSPDKPGKGSFWTLHPDSGNMFENGCYLRRQKRFKCEKQLALKEAAGAAGSGKKAAAGAQASQAQLGEAAGPASETPAGTESPHSSASPCQEHKRGGLGELKGTPAAALSPPEPAPSPGQQQQAAAHLLGPPHHPGLPPEAHLKPEHHYAFNHPFSINNLMSSEQQHHHSHHHHQPHKMDLKAYEQVMHYPGYGSPMPGSLAMGPVTNKTGLDASPLAADTSYYQGVYSRPIMNSS | binding [6]: binds
